Test results as given in doi:10.1101/2025.01.09.632080.
No constants are given. Whether binding was seen depends on the method and setting. For some assays here: In cells and extracts the contact can be indirect. Some binding calls cover weakened binding; strength is not graded here. For some assays here: Sequences can lack the tags named with a protein.

Sequences of proteins named here, by UniProt entry; tags and fusion partners are left off.
UniProt O60826: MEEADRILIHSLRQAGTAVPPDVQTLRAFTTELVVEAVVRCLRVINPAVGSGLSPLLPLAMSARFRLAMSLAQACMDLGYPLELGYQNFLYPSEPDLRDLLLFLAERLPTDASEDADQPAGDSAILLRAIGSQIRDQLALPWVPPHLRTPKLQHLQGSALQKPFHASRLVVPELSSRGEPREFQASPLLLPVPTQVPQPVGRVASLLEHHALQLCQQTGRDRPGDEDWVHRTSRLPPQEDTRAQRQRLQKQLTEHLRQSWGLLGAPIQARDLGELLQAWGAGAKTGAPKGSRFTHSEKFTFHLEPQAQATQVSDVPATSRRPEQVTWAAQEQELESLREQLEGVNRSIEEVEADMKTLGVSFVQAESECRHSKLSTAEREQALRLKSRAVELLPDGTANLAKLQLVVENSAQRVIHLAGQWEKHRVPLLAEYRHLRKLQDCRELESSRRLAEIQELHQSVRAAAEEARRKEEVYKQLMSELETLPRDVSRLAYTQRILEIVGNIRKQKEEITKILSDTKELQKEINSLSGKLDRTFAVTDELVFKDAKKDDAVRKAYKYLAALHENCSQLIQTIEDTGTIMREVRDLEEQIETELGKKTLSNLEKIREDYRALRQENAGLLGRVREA

Columns and labels:
[1] = target: TRIM72, endogenous in mouse tissues (mouse (endogenous in skeletal muscle and cortex)) (UniProt Q1XH17); experiment: SDS-PAGE and western blot of tissue lysate
[2] = target: C-terminal Myc-tagged CCDC22 (CCDC22-Myc) (UniProt O60826); experiment: co-IP

Binder | binding [1] | binding [2]
TRIM72, endogenous in mouse tissues (protein, UniProt Q1XH17 1-477) MSAAPGLLRQELSCPLCLQLFDAPVTAECGHSFCRACLIRVAGEPAADGTVACPCCQAPTRPQALSTNLQLSRLVEGLAQVPQGHCEEHLDPLSIYCEQDRTLVCGVCASLGSHRGHRLLPAAEAQARLKTQLPQQKMQLQEACMRKEKTVAVLEHQLVEVEETVRQFRGAVGEQLGKMRMFLAALESSLDREAERVRGDAGVALRRELSSLNSYLEQLRQMEKVLEEVADKPQTEFLMKFCLVTSRLQKILSESPPPARLDIQLPVISDDFKFQVWKKMFRALMPALEELTFDPSSAHPSLVVSSSGRRVECSDQKAPPAGEDTRQFDKAVAVVAQQLLSQGEHYWEVEVGDKPRWALGVMAADASRRGRLHAVPSQGLWLLGLRDGKILEAHVEAKEPRALRTPERPPARIGLYLSFADGVLAFYDASNPDVLTPIFSFHERLPGPVYPIFDVCWHDKGKNAQPLLLVGPEQEQA | binds | 
EGFP-TRIM72 (protein, UniProt Q6ZMU5 1-477) MSAAPGLLHQELSCPLCLQLFDAPVTAECGHSFCRACLGRVAGEPAADGTVLCPCCQAPTRPQALSTNLQLARLVEGLAQVPQGHCEEHLDPLSIYCEQDRALVCGVCASLGSHRGHRLLPAAEAHARLKTQLPQQKLQLQEACMRKEKSVAVLEHQLVEVEETVRQFRGAVGEQLGKMRVFLAALEGSLDREAERVRGEAGVALRRELGSLNSYLEQLRQMEKVLEEVADKPQTEFLMKYCLVTSRLQKILAESPPPARLDIQLPIISDDFKFQVWRKMFRALMPALEELTFDPSSAHPSLVVSSSGRRVECSEQKAPPAGEDPRQFDKAVAVVAHQQLSEGEHYWEVDVGDKPRWALGVIAAEAPRRGRLHAVPSQGLWLLGLREGKILEAHVEAKEPRALRSPERRPTRIGLYLSFGDGVLSFYDASDADALVPLFAFHERLPRPVYPFFDVCWHDKGKNAQPLLLVGPEGAEA |  | binds
